Test results: PubChem BioAssay AID438 (Columbia University Molecular Screening Center, 2006)
Some of the results follow. Some results for these compounds are left out of this collection, so the calls shown say nothing about other tests.

Assay: inhibitors of TNFa-induced NFkB p65 translocation, primary screen, imaging, HUVEC, MLSMR starter and 10KST1 sets (AID 438);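 also: compound added about 3h40 before a 20 min TNFalpha stimulation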
Conditions: HUVEC TNFa-induced p65 nuclear translocation, measured here: nuclei count (cytotoxicity indicator), at 2.08 µM
With `O=C(OC1CN2CCC1CC2)C(CO)(c1ccccc1)c1ccccc1` (stereo unspecified) the cell count was 603.
